PubChem BioAssay AID504791 – Drosophila RNAi Screening Center, 2011

Test: 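Factors in Argonaute-based small RNA production and activity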 (primary screen)
Cell system: Drosophila S2-derived reporter cells
Knock-down reagent: long dsRNA against Drosophila genes, about 150-250 ng dsRNA per well (siRNA assay); about 80-120 ng (miRNA assay)
Time to read-out: about 5 days (siRNA assay); about 4 days (miRNA assay)
Challenge: copper sulfate induction of reporters: 25 µM (siRNA assay); 200 mM stated (miRNA assay), 1-2 days before reading
Measured: 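Dual luciferase assay: Renilla to firefly signal ratio in each well, scaled to the mean ratio of its plate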
Scale: siRNA reporter hit score: higher = 3 marks a strong hit with raised ratio; -3 a strong hit with lowered ratio
Active means: 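First-pass picks had plate-scaled ratios over 1.5 for the siRNA assay, over 1.6 for the miRNA assay, or under 0.6; two distinct dsRNAs had to score alike on retest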
In all, the deposit lists about 23,000 reagents; below is an unselected part of those that have a named target and a result. Of all reagents, 199 (0.86%) got an active call. 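Plate-scaled ratios behind the calls are not deposited; printed light signals are raw; many rows marked increased or decreased are still called inactive.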 Unmarked entries are inactive. Names joined by + are all predicted targets of the reagent. Reagent sequences are not shown.

The opening 8 entries, to show the layout:
Gene | DRSC id | siRNA reporter hit score | stable siRNA reporter change | miRNA reporter change | stable assay Renilla, run 1 (luminescence) | stable assay firefly, run 1 (luminescence)
Kank | DRSC05513 | – | – | – | 6611 | 4.10e5
Kank | DRSC05933 | – | – | reporter ratio lowered past the hit cutoff | 8285 | 5.01e5
CG4116 | DRSC18348 | – | – | – | 6810 | 3.89e5
Cdk1 (Cyclin-dependent kinase 1) | DRSC03504 | -3 | – | – | 1.43e5 | 7.27e5
CG15431 | DRSC00446 | – | – | – | 7146 | 4.59e5
tkv + CR14033 + tRNA:Asp-GTC-2-1 + 1 more | DRSC00861 | – | – | – | 2824 | 2.96e5
CG31406 | DRSC12777 | – | – | – | 5419 | 3.97e5
RpS25 (Ribosomal protein S25) | DRSC16837 | – | – | – | 7306 | 5.68e5

The listing, repeating the preview:
Gene | DRSC id | siRNA reporter hit score | stable siRNA reporter change | miRNA reporter change | stable assay Renilla, run 1 (luminescence) | stable assay firefly, run 1 (luminescence)
Kank | DRSC05513 | – | – | – | 6611 | 4.10e5
Kank | DRSC05933 | – | – | reporter ratio lowered past the hit cutoff | 8285 | 5.01e5
CG4116 | DRSC18348 | – | – | – | 6810 | 3.89e5
Cdk1 (Cyclin-dependent kinase 1) | DRSC03504 | -3 | – | – | 1.43e5 | 7.27e5
CG15431 | DRSC00446 | – | – | – | 7146 | 4.59e5
tkv + CR14033 + tRNA:Asp-GTC-2-1 + 1 more | DRSC00861 | – | – | – | 2824 | 2.96e5
CG31406 | DRSC12777 | – | – | – | 5419 | 3.97e5
RpS25 (Ribosomal protein S25) | DRSC16837 | – | – | – | 7306 | 5.68e5
LeuRS-m (Leucyl-tRNA synthetase, mitochondrial) | DRSC08595 | – | – | – | 7278 | 4.25e5
CG11112 | DRSC06038 | – | – | – | 6790 | 3.01e5
Ilp6 (Insulin-like peptide 6) | DRSC17906 | – | – | – | 6283 | 3.86e5
CG6398 | DRSC19992 | – | – | – | 8160 | 3.57e5
CG6959 | DRSC16151 | – | – | – | 6398 | 3.80e5
BomS2 (Bomanin Short 2) | DRSC21488 | – | – | – | 9361 | 6.09e5
msi (musashi) | DRSC17003 | – | – | – | 6075 | 3.32e5
Rhau (RHAU helicase) | DRSC03200 | – | – | – | 9411 | 7.98e5
Vajk4 | DRSC06589 | – | – | reporter ratio raised past the hit cutoff | 14819 | 4.56e5
Vajk4 | DRSC07003 | – | – | – | 7380 | 3.69e5
CG13557 | DRSC04195 | – | – | – | 5992 | 3.85e5
BRWD3 | DRSC15369 | – | – | – | 9553 | 4.44e5
BRWD3 | DRSC16032 | – | – | – | 5559 | 3.42e5
CG32814 | DRSC17670 | – | – | – | 6858 | 3.63e5
Xpac (Xeroderma pigmentosum group A-like) | DRSC18730 | – | – | – | 7334 | 4.12e5
r2d2 | DRSC03014 | – | – | – | 7606 | 4.10e5
CG15553 | DRSC15091 | – | – | – | 6948 | 5.60e5
CG5078 | DRSC11762 | – | – | – | 8208 | 3.61e5
eIF4H2 (eukaryotic translation initiation factor 4H2) | DRSC14582 | – | – | – | 6863 | 4.28e5
rux (roughex) | DRSC18829 | – | – | – | 8336 | 3.69e5
Gabat (gamma-aminobutyric acid transaminase) | DRSC10846 | – | – | – | 6700 | 3.40e5
primo-2 + primo-1 | DRSC16511 | – | – | – | 8018 | 4.27e5
Spindly | DRSC00430 | – | – | – | 9354 | 3.59e5
cwo (clockwork orange) | DRSC17072 | – | – | – | 7210 | 5.17e5
CG4066 | DRSC15541 | – | – | – | 6551 | 4.24e5
CG13562 | DRSC04200 | – | – | – | 6659 | 3.71e5
CG31998 | DRSC17137 | – | – | – | 8933 | 4.79e5
CG31998 | DRSC17138 | – | – | – | 6063 | 3.21e5
Spn43Ab (Serpin 43Ab) | DRSC06781 | – | – | – | 6527 | 3.64e5
Cog3 (Component of oligomeric golgi complex 3) | DRSC00585 | – | – | – | 46601 | 1.41e5
ytr (yantar) | DRSC04306 | – | – | – | 21162 | 8.78e5
ytr (yantar) | DRSC22073 | – | – | – | 8867 | 5.68e5
Chd1 (Chromodomain-helicase-DNA-binding protein 1) | DRSC00745 | – | – | – | 25756 | 1.41e5
CG2577 | DRSC19863 | – | – | reporter ratio raised past the hit cutoff (active) | 4543 | 4.18e5
CG2577 | DRSC23309 | – | – | – | 4610 | 4.14e5
CG2577 | DRSC26322 | – | – | reporter ratio raised past the hit cutoff (active) | – | –
CtIP (CTBP-interacting protein) | DRSC11785 | – | – | – | 7696 | 3.87e5
CG7059 | DRSC16187 | – | – | – | 5806 | 3.22e5
CG3566 | DRSC18311 | – | – | – | 6936 | 4.19e5
CG6833 | DRSC10721 | – | – | – | 9117 | 3.32e5
sut3 (sugar transporter 3) | DRSC07702 | – | – | – | 6922 | 3.90e5
thoc5 | DRSC04327 | – | – | – | 9360 | 1.65e6
CG14882 | DRSC15006 | – | – | – | 8134 | 3.23e5
PolD2 (DNA polymerase delta subunit 2) | DRSC08147 | – | – | – | 9513 | 3.15e5
rgn (regeneration) | DRSC11609 | – | – | – | 10703 | 4.74e5
Ada (Adenosine deaminase) | DRSC14463 | – | – | – | 5734 | 3.69e5
Paris (Parkin Interacting Substrate) | DRSC00451 | – | – | – | 14795 | 5.34e5
C1GalTA (Core 1 Galactosyltransferase A) | DRSC03246 | – | – | – | 6886 | 5.87e5
CG17508 | DRSC07771 | – | – | – | 6663 | 3.43e5
ImpL2 (Ecdysone-inducible gene L2) | DRSC08666 | – | – | – | 7922 | 3.97e5
CD98hc (CD98 heavy chain) | DRSC15453 | – | – | – | 7767 | 3.39e5
RhoGAP15B (Rho GTPase activating protein at 15B) | DRSC19924 | – | – | – | 8062 | 4.69e5
RhoGAP15B (Rho GTPase activating protein at 15B) | DRSC19925 | – | – | – | 4347 | 3.21e5
mRNA-cap (mRNA-capping-enzyme) | DRSC19789 | – | – | – | 4511 | 4.97e5
KLHL18 (Kelch like family member 18) | DRSC15496 | – | – | – | 9519 | 5.01e5
Lrpprc2 (Leucine-rich pentatricopeptide repeat containing 2) | DRSC18605 | – | – | – | 7553 | 4.85e5
CG5087 | DRSC10479 | – | – | – | 6292 | 4.01e5
Nep6 (Neprilysin 6) | DRSC19877 | – | – | – | 8715 | 3.73e5
Paip1 (Poly(A) binding protein interacting protein 1) | DRSC07302 | – | – | – | 7204 | 2.37e5
gammaCOP (Coat Protein (coatomer) gamma) | DRSC16955 | – | – | reporter ratio raised past the hit cutoff | 4276 | 2.12e5
Ublcp1 | DRSC14149 | – | – | – | 7307 | 3.04e5
GlcAT-S (Glucuronyltransferase S) | DRSC02731 | – | – | – | 11039 | 7.92e5
CG32061 | DRSC22605 | – | – | – | 4007 | 3.40e5
ric8a | DRSC18093 | – | – | – | 7419 | 5.96e5
Strica (Ser/Thr-rich caspase) | DRSC04920 | – | – | – | 6180 | 3.12e5
Hyccin | DRSC06983 | – | – | – | 7279 | 3.20e5
usp (ultraspiracle) | DRSC18847 | – | – | – | 6311 | 4.09e5
twe (twine) | DRSC03628 | – | – | – | 2.97e5 | 1.19e6
Osi16 (Osiris 16) | DRSC12135 | – | – | – | 6775 | 4.18e5
Osi16 (Osiris 16) | DRSC21323 | – | – | – | 10202 | 7.01e5
Gal (beta galactosidase) | DRSC03134 | – | – | – | 8039 | 4.77e5
CG34187 (retired record) | DRSC05543 | – | – | – | 5539 | 3.04e5
CG5555 | DRSC15834 | – | – | – | 10197 | 4.71e5
CG18507 | DRSC01334 | – | – | – | 4451 | 3.02e5
CG18507 | DRSC01914 | – | – | – | 8035 | 4.99e5
CG17111 | DRSC15174 | – | – | – | 6331 | 3.29e5
CG3330 | DRSC15477 | – | – | – | 7806 | 4.38e5
CG7881 | DRSC04898 | – | – | – | 5930 | 3.10e5
MKP-4 (MAPK Phosphatase 4) | DRSC19567 | – | reporter ratio lowered past the hit cutoff | – | 7119 | 6.63e5
CG32176 | DRSC10057 | – | – | – | 7322 | 5.50e5
CG32176 | DRSC10058 | – | – | – | 8678 | 3.86e5
brun (brunelleschi) | DRSC02706 | – | – | reporter ratio lowered past the hit cutoff | 20830 | 1.79e6
Nep7 (Neprilysin 7) | DRSC15830 | – | – | – | 6478 | 4.16e5
CG32243 | DRSC08105 | – | – | – | 5259 | 5.10e5
hdm (hold'em) | DRSC18013 | – | – | – | 6891 | 3.75e5
CG14673 (retired record) | DRSC12259 | – | – | – | 8031 | 5.35e5
CG42717 | DRSC09411 | – | – | – | 4247 | 3.52e5
CG6443 | DRSC02958 | – | – | – | 7971 | 1.16e6
CG9777 | DRSC20208 | – | – | – | 6231 | 5.78e5
Gr61a (Gustatory receptor 61a) | DRSC08358 | – | – | – | 4424 | 3.35e5
CG5217 | DRSC15740 | – | – | – | 9567 | 4.47e5
ics (icarus) | DRSC01878 | – | – | – | 6442 | 1.25e6
CG42650 | DRSC12462 | – | – | – | 5146 | 3.00e5
Kpc1 (Kip1 ubiquitination-promoting complex subunit 1) | DRSC16107 | – | – | – | 9433 | 6.71e5
MBD-R2 | DRSC14180 | – | – | – | 12502 | 5.07e5
CG7724 | DRSC10905 | – | – | – | 10377 | 4.95e5
CG10137 | DRSC02014 | – | – | – | 33413 | 1.30e6
CG10137 | DRSC02015 | – | – | – | 7470 | 3.57e5
